# Data: the supplement of paper PMC4604168 (melanoma cell lines)
# Some of the results follow. Many values rest on one well or one pass, so single values are uncertain.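 Imaging used 1,536-well plates; nuclei positive for cleaved PARP by antibody were divided by total DNA-stained nuclei to yield the apoptosis fraction. Doses for screening kept most cells viable, and cell lines differ markedly in resting and induced cleaved-PARP levels.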
# Assays:
# Experiment in all cases: cleaved PARP positive nuclei fraction relative to DMSO control; melanoma cells; higher = more apoptosis
# Details in all cases: library dose: low library concentration; 72 h
# 501Mel = system: 501Mel
# A101D = system: A101D
# A2058 = system: A2058
# A375 = system: A375
# C32 = system: C32
# CBRC013 = system: CBRC013 (line from a melanoma biopsy)
# CBRC014 = system: CBRC014 (line from a melanoma biopsy)
# CBRC016 = system: CBRC016 (line from a melanoma biopsy)
# CBRC017 = system: CBRC017 (line from a melanoma biopsy)
SMILES,cleaved PARP positive nuclei fraction (501Mel) [%],cleaved PARP positive nuclei fraction (A101D) [%],cleaved PARP positive nuclei fraction (A2058) [%],cleaved PARP positive nuclei fraction (A375) [%],cleaved PARP positive nuclei fraction (C32) [%],cleaved PARP positive nuclei fraction (CBRC013) [%],cleaved PARP positive nuclei fraction (CBRC014) [%],cleaved PARP positive nuclei fraction (CBRC016) [%],cleaved PARP positive nuclei fraction (CBRC017) [%]
"Cc1cc(SCc2sc(-c3ccc(C(F)(F)F)c(F)c3)nc2C)ccc1OCC(=O)O + C/C(O)=C(\C#N)C(=O)Nc1cc(Br)ccc1Br [LFM-A13] (first compound 2 µM, partner dose 2 µM)",69.6,113,49.4,67.8,91.3,136,82.2,92.7,79.8
"O=C(Oc1ccc([N+](=O)[O-])cc1)N1CCC(C(O)(c2ccc3c(c2)OCO3)c2ccc3c(c2)OCO3)CC1 + CCCCCCCCCCCC1=C(O)C(=O)C=C(O)C1=O [Embelin] (first compound 1 µM, partner dose 1.2 µM)",82.2,129,42.4,147,253,39.8,92.2,65.8,78.5
"Cc1nc(Nc2ncc(C(=O)Nc3c(C)cccc3Cl)s2)cc(N2CCN(CCO)CC2)n1 [dasatanib] + C/C(O)=C(\C#N)C(=O)Nc1cc(Br)ccc1Br [LFM-A13] (first compound 0.004 µM, partner dose 2 µM)",91.1,71.5,219,243,170,75.5,107,59.5,84.1
"O=S(=O)(c1ccccc1)N(CC(F)(F)F)c1ccc(C(O)(C(F)(F)F)C(F)(F)F)cc1 + C/C(O)=C(\C#N)C(=O)Nc1cc(Br)ccc1Br [LFM-A13] (first compound 1.4 µM, partner dose 2 µM)",70.4,186,122,207,155,99.1,100,90.9,44.4
"CCN(CC)CCCCNc1ncc2cc(-c3cc(OC)cc(OC)c3)c(NC(=O)NC(C)(C)C)nc2n1 + C/C(O)=C(\C#N)C(=O)Nc1cc(Br)ccc1Br [LFM-A13] (first compound 0.1 µM, partner dose 2 µM)",153,161,61,64.6,119,333,89.2,155,73.1
"C[As](C)SC[C@H](NC(=O)CC[C@H](N)C(=O)O)C(=O)NCC(=O)O [Darinaparsin] + O=C(O)C(=O)Nc1sc2c(c1C(=O)O)CCNC2 [TCS401] (first compound 0.4 µM, partner dose 1.66667 µM)",44.9,230,133,70.5,54.7,30.8,98.2,25.2,173
"NC(=O)Nc1cc(-c2cccc(F)c2)sc1C(=O)N[C@H]1CCCNC1 + O=C(Oc1ccc([N+](=O)[O-])cc1)N1CCC(C(O)(c2ccc3c(c2)OCO3)c2ccc3c(c2)OCO3)CC1 [JZL184] (first compound 0.02 µM, partner dose 1 µM)",105,268,49.1,278,78.9,37.4,85.1,50.3,154
"Cc1cc(SCc2sc(-c3ccc(C(F)(F)F)c(F)c3)nc2C)ccc1OCC(=O)O + COc1cc(N2CCC(N3CCN(C)CC3)CC2)ccc1Nc1ncc(Cl)c(Nc2ccccc2S(=O)(=O)C(C)C)n1 [NVP-TAE684] (first compound 2 µM, partner dose 0.08 µM)",122,62,153,34,112,546,101,217,97
"Cc1cc(SCc2sc(-c3ccc(C(F)(F)F)c(F)c3)nc2C)ccc1OCC(=O)O + CC(C)CCN1c2nc(Nc3cc(F)c(O)c(F)c3)ncc2N(C)C(=O)C1C [BID1870] (first compound 2 µM, partner dose 0.2 µM)",61.1,106,60.4,58,41.4,44.9,121,132,114
"NCC(=O)Nc1ccc(-n2nc(C(F)(F)F)cc2-c2ccc3c(ccc4ccccc43)c2)cc1 + O=C(Oc1ccc([N+](=O)[O-])cc1)N1CCC(C(O)(c2ccc3c(c2)OCO3)c2ccc3c(c2)OCO3)CC1 [JZL184] (first compound 1 µM, partner dose 1 µM)",336,75.8,70.3,671,123,185,92.5,27.3,103
"Oc1cc(-c2nc(-c3ccccc3)[nH]c2-c2ccncc2)ccc1Cl + C/C(O)=C(\C#N)C(=O)Nc1cc(Br)ccc1Br [LFM-A13] (first compound 0.2 µM, partner dose 2 µM)",83.8,62.9,131,308,92.4,77.2,88.1,81.5,81.9
"OCCn1cc(-c2cnc3nnn(Cc4ccc5ncccc5c4)c3n2)cn1 + Cc1cc(SCc2sc(-c3ccc(C(F)(F)F)c(F)c3)nc2C)ccc1OCC(=O)O [GW0742] (first compound 1 µM, partner dose 2 µM)",73.8,103,143,230,53.2,87,125,41.9,167
"CCc1ccc(CCOc2ccc(CC3SC(=O)NC3=O)cc2)nc1 (configuration not stated) [pioglitazone] + C/C(O)=C(\C#N)C(=O)Nc1cc(Br)ccc1Br [LFM-A13] (first compound 2 µM, partner dose 2 µM)",138,163,52.3,97.8,169,228,196,90.3,80
"COc1cc(Nc2ncc(F)c(Nc3ccc4c(n3)NC(=O)C(C)(C)O4)n2)cc(OC)c1OC [Tamatinib] + O=C(Oc1ccc([N+](=O)[O-])cc1)N1CCC(C(O)(c2ccc3c(c2)OCO3)c2ccc3c(c2)OCO3)CC1 [JZL184] (first compound 0.4 µM, partner dose 1 µM)",160,80.6,135,451,162,155,102,68,76
"O=C(Oc1ccc([N+](=O)[O-])cc1)N1CCC(C(O)(c2ccc3c(c2)OCO3)c2ccc3c(c2)OCO3)CC1 + Cn1cc(/C=C2\C(=O)Nc3cccnc32)c2ccccc21 [GW441756] (first compound 1 µM, partner dose 0.4 µM)",37.6,123,66.6,272,46.8,259,78.5,118,81.7
"C[As](C)SC[C@H](NC(=O)CC[C@H](N)C(=O)O)C(=O)NCC(=O)O [Darinaparsin] + O=C1NC(=O)/C(=C/c2ccc(-c3ccc(F)cc3O)o2)S1 [AS252424] (first compound 0.4 µM, partner dose 1 µM)",199,299,99.5,54.1,208,82.7,86.6,76.7,110
"CC(C)(C)c1cnc(CSc2cnc(NC(=O)C3CCNCC3)s2)o1 + O=C(Oc1ccc([N+](=O)[O-])cc1)N1CCC(C(O)(c2ccc3c(c2)OCO3)c2ccc3c(c2)OCO3)CC1 [JZL184] (first compound 0.01 µM, partner dose 1 µM)",77.5,88,56.2,90.7,111,204,98.7,102,110
"O=S(=O)(c1ccccc1)N(CC(F)(F)F)c1ccc(C(O)(C(F)(F)F)C(F)(F)F)cc1 + O=C(Oc1ccc([N+](=O)[O-])cc1)N1CCC(C(O)(c2ccc3c(c2)OCO3)c2ccc3c(c2)OCO3)CC1 [JZL184] (first compound 1.4 µM, partner dose 1 µM)",264,58.1,81.9,103,93.7,68,117,85.4,81.8
"COc1ccc2c(c1)CCC1C2CCC2(C)C(NCCCCCCN3C(=O)C=CC3=O)CCC12 (configuration not stated) + C/C(O)=C(\C#N)C(=O)Nc1cc(Br)ccc1Br [LFM-A13] (first compound 0.4 µM, partner dose 2 µM)",82.8,125,84.7,209,60.2,86.4,101,184,81
"C[As](C)SC[C@H](NC(=O)CC[C@H](N)C(=O)O)C(=O)NCC(=O)O [Darinaparsin] + CC(C)CCN1c2nc(Nc3cc(F)c(O)c(F)c3)ncc2N(C)C(=O)C1C [BID1870] (first compound 0.4 µM, partner dose 0.2 µM)",49.7,79.9,94.2,234,64.1,188,97.1,111,72.6
"Cn1cncc1[C@@](N)(c1ccc(Cl)cc1)c1ccc2c(c1)c(-c1cccc(Cl)c1)cc(=O)n2C [tipifarnib] + Cc1cc(SCc2sc(-c3ccc(C(F)(F)F)c(F)c3)nc2C)ccc1OCC(=O)O [GW0742] (first compound 0.01 µM, partner dose 2 µM)",55.4,109,81.7,302,111,125,93.8,89.8,152
"CCN(CC)CCCCNc1ncc2cc(-c3cc(OC)cc(OC)c3)c(NC(=O)NC(C)(C)C)nc2n1 + Cc1cc(SCc2sc(-c3ccc(C(F)(F)F)c(F)c3)nc2C)ccc1OCC(=O)O [GW0742] (first compound 0.1 µM, partner dose 2 µM)",182,55.1,109,141,134,45.6,83.5,50.4,152
"CO[C@@H]1[C@H](N(C)C(=O)c2ccccc2)C[C@H]2O[C@]1(C)n1c3ccccc3c3c4c(c5c6ccccc6n2c5c31)C(=O)NC4 [Midostaurin] + Cc1cc(SCc2sc(-c3ccc(C(F)(F)F)c(F)c3)nc2C)ccc1OCC(=O)O [GW0742] (first compound 0.08 µM, partner dose 2 µM)",73.3,94.9,70.4,193,133,448,110,206,94.4

# Reprinted from above for reference:
SMILES,cleaved PARP positive nuclei fraction (501Mel) [%],cleaved PARP positive nuclei fraction (A101D) [%],cleaved PARP positive nuclei fraction (A2058) [%],cleaved PARP positive nuclei fraction (A375) [%],cleaved PARP positive nuclei fraction (C32) [%],cleaved PARP positive nuclei fraction (CBRC013) [%],cleaved PARP positive nuclei fraction (CBRC014) [%],cleaved PARP positive nuclei fraction (CBRC016) [%],cleaved PARP positive nuclei fraction (CBRC017) [%]
"CCN(CC)CCCCNc1ncc2cc(-c3cc(OC)cc(OC)c3)c(NC(=O)NC(C)(C)C)nc2n1 + C/C(O)=C(\C#N)C(=O)Nc1cc(Br)ccc1Br [LFM-A13] (first compound 0.1 µM, partner dose 2 µM)",153,161,61,64.6,119,333,89.2,155,73.1
"C[As](C)SC[C@H](NC(=O)CC[C@H](N)C(=O)O)C(=O)NCC(=O)O [Darinaparsin] + O=C(O)C(=O)Nc1sc2c(c1C(=O)O)CCNC2 [TCS401] (first compound 0.4 µM, partner dose 1.66667 µM)",44.9,230,133,70.5,54.7,30.8,98.2,25.2,173
